Test results published in the RNAGym collection of RNA variant scans (doi:10.1126/science.aae0568).
Variants at the background level are over-represented here.

B1: tRNA (parent)
chain: GUUCCGUUGGCGUAAUGGUAACGCGUCUCCCUCCUAAGGAGAAGACUGCGGGUUCGAGUCCCGUACGGAACG

Variants of: B1
Experiment: yeast fitness relative to wild type (ratio to wild type); higher = fitter; tRNA-Arg(CCU), competitive growth, 37 C, YPD
Summary of the method: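 A pool of Saccharomyces cerevisiae strains, each with a tRNA-Arg(CCU) gene variant at the native genomic locus, was competed in YPD at 37°C for 24 hours across six parallel replicates. The variants had been chemically synthesised at a 3% per-site mutation rate over 69 sites, and gene amplicons before and after competition were read by 100-nucleotide paired-end sequencing. Darwinian fitness relative to wild type rested on changes in genotype frequencies. Genotypes required ≥ 100 starting reads, and estimates < 0.5 were set to 0.5.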

A40U A42C U53A and C4U A21G C22U A65C cannot be ordered by yeast fitness: ≤ 0.5 for the first, ≤ 0.5 for the second.

Going from A36U G39C A69C to A14C G23A A45U C61U, the yeast fitness rises from ≤ 0.5 to 0.782.

First: G6C C29A A45U C46G U47A G50A U64G
Second: C29U C30U G63A
The yeast fitness of the first is lower: ≤ 0.5 for the first, 0.514 for the second.

C4G C24U A65C and A20G C22U G51A cannot be ordered by yeast fitness: ≤ 0.5 for the first, ≤ 0.5 for the second.

G6C G52C A65G and C29U U35G A37C G38C C49G cannot be ordered by yeast fitness: ≤ 0.5 for the first, ≤ 0.5 for the second.

Compared with A21G C27U A70G, U3A C22U C24A C27U A43C is lower in yeast fitness: 0.792 for the first, 0.522 for the second.

Compared with A14C C24U A36G, G6A G12A C30G A40U is lower in yeast fitness: 0.591 for the first, ≤ 0.5 for the second.

U28G G39A C49A and U3A U7G A14U G25A G41C G50C cannot be ordered by yeast fitness: ≤ 0.5 for the first, ≤ 0.5 for the second.

First: U3C U32G C61A C62A
Second: C4A C11U A14U A20C U28G
The yeast fitness of the first is higher: 0.53 for the first, ≤ 0.5 for the second.

C5U A37C C61G and C5U U47C A57G C62U cannot be ordered by yeast fitness: ≤ 0.5 for the first, ≤ 0.5 for the second.

U2A U28C C49U C62G and A20C G39C G48U C49U cannot be ordered by yeast fitness: ≤ 0.5 for the first, ≤ 0.5 for the second.

A21C G25C C27G and U8C G18C U32G G58A cannot be ordered by yeast fitness: ≤ 0.5 for the first, ≤ 0.5 for the second.

G10C G50A A70U and C11G A40C C46U C60A cannot be ordered by yeast fitness: ≤ 0.5 for the first, ≤ 0.5 for the second.

G25C C29A U32A A65U and C31U U32C G67C cannot be ordered by yeast fitness: ≤ 0.5 for the first, ≤ 0.5 for the second.

Going from A20C U28G A69C to C24A G25A C62A, the yeast fitness falls from 0.714 to ≤ 0.5.

C5G U8C A36C G48A and U3A C11U U13C C31A A42G G67C cannot be ordered by yeast fitness: ≤ 0.5 for the first, ≤ 0.5 for the second.

C11G U47A G68C and G9A C34U U53C A69C cannot be ordered by yeast fitness: ≤ 0.5 for the first, ≤ 0.5 for the second.

A15G A20G C34A C62G G68C and U8A C27A G39C G51C cannot be ordered by yeast fitness: ≤ 0.5 for the first, ≤ 0.5 for the second.

U19A C30G C61G and U2C C29A G56C cannot be ordered by yeast fitness: ≤ 0.5 for the first, ≤ 0.5 for the second.

Going from C22U A37C to U16C C29G C49U C60A C61A, the yeast fitness falls from 0.593 to ≤ 0.5.

C5G U13G A14U U59C C60U and A20G A43U U47C C61G cannot be ordered by yeast fitness: ≤ 0.5 for the first, ≤ 0.5 for the second.

A15U C31A C33G A43U and U2C C4G A37G G44A cannot be ordered by yeast fitness: ≤ 0.5 for the first, ≤ 0.5 for the second.

A40C A57U G58A G67A and U7A G17C C24G C29A A69C cannot be ordered by yeast fitness: ≤ 0.5 for the first, ≤ 0.5 for the second.

C4A G10C C29G A65U and C4G G9C C27U C29U U59C C62A cannot be ordered by yeast fitness: ≤ 0.5 for the first, ≤ 0.5 for the second.

C11G A15U A36U C66U and C22G C30U C62G cannot be ordered by yeast fitness: ≤ 0.5 for the first, ≤ 0.5 for the second.

A21C C27U G51A U59C and U2A G18A C24U cannot be ordered by yeast fitness: ≤ 0.5 for the first, ≤ 0.5 for the second.

C29U U47C G67C and U3G C31G G44C U53C A65U cannot be ordered by yeast fitness: ≤ 0.5 for the first, ≤ 0.5 for the second.

First: C5U G17A A40U A42C C49A
Second: C4A C33G C61G G68C
The yeast fitness of the first is higher: 0.684 for the first, ≤ 0.5 for the second.

First: U3C A37G A70U
Second: U7C G23C
The yeast fitness of the first is lower: 0.568 for the first, 0.671 for the second.

Going from C5G A15G A40C C46A to U32A C61G C66G, the yeast fitness rises from ≤ 0.5 to 0.576.

A20C U32G U53A A57C C62U and U3C U54C G67C cannot be ordered by yeast fitness: ≤ 0.5 for the first, ≤ 0.5 for the second.

C5G A15C C46A and U3C A14U A40G A57G A65G cannot be ordered by yeast fitness: ≤ 0.5 for the first, ≤ 0.5 for the second.

C5G A14C A36U A45U C49U U64A A70U and C11U U13A C34U G41A A43U cannot be ordered by yeast fitness: ≤ 0.5 for the first, ≤ 0.5 for the second.

First: C4U G44C G67A
Second: A14G C31U C33U A45C G48A
The yeast fitness of the first is higher: 0.768 for the first, 0.626 for the second.

Compared with C4A C60U, C24A C66A A69C is lower in yeast fitness: 0.825 for the first, ≤ 0.5 for the second.

A20C C33A G41C A45U and C24G A65U G67C cannot be ordered by yeast fitness: ≤ 0.5 for the first, ≤ 0.5 for the second.

G17A A45C C55U G63C C66U and G25A A37U A43C C55A C60G G63C cannot be ordered by yeast fitness: ≤ 0.5 for the first, ≤ 0.5 for the second.

C4G A40C A42C G56A and A14G A15C C30U cannot be ordered by yeast fitness: ≤ 0.5 for the first, ≤ 0.5 for the second.

C11U C30U G58C C66A and U3A G25A C31U G63C G67C A69U cannot be ordered by yeast fitness: ≤ 0.5 for the first, ≤ 0.5 for the second.

G17A A20G U28A U35A A70U and A21U G25A U54A C62G C66U A70C cannot be ordered by yeast fitness: ≤ 0.5 for the first, ≤ 0.5 for the second.

Going from A21U C24G C49A U54G to A15G C24G U32A G41A A69U, the yeast fitness falls from 0.56 to ≤ 0.5.

With C5U A20U C30U the yeast fitness was ≤ 0.5.
